Experimental data: PubChem BioAssay AID1259308 (NCATS, 2017)

- Aim: 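Candidate targets for better recombinant protein yield in mammalian cells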 (primary screen)
- Cell system: human HEK293 embryonic kidney cells stably expressing firefly luciferase (HEK-CMV-Luc2-Hygro)
- Reagent: single siRNA against human genes, 0.8 pmol siRNA per well
- Timing: 72 h
- Measurement: 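Luciferase light (ONE-Glo) measured on one replicate plate set and viability (CellTiter-Glo) on the other, scaled to a negative control siRNA, with robust z-scores and luciferase per cell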
- Direction: total luciferase, z-score: higher = more reporter protein produced
- Rule for the call: 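An siRNA counts as active if its total luciferase robust z-score exceeds 3; genes with two or more such siRNAs out of three were retested with fresh siRNAs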
- Calls: active = raised luciferase; inactive = no rise
The whole screen tested about 59,000 reagents; below is a random part of them. About 1,510 of all reagents (2.6%) count as active. 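Calls use total luciferase alone and ignore viability, so some active siRNAs may act by altering cell number.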 Reagents against one gene are numbered here. Further read-outs or replicates are left out here.

GAPT (GRB2 binding adaptor protein, transmembrane) #1 | total luciferase, z-score: 0.499; call: inactive
GAPT (GRB2 binding adaptor protein, transmembrane) #2 | total luciferase, z-score: -0.294; call: inactive
GAPT (GRB2 binding adaptor protein, transmembrane) #3 | total luciferase, z-score: 0.0203; call: inactive
ZNF233 (zinc finger protein 233) #1 | total luciferase, z-score: -0.747; call: inactive
ZNF233 (zinc finger protein 233) #2 | total luciferase, z-score: 2.57; call: inactive
ZNF233 (zinc finger protein 233) #3 | total luciferase, z-score: 1.41; call: inactive
DUSP12 (dual specificity phosphatase 12) #1 | total luciferase, z-score: 0.27; call: inactive
DUSP12 (dual specificity phosphatase 12) #2 | total luciferase, z-score: -0.0519; call: inactive
DUSP12 (dual specificity phosphatase 12) #3 | total luciferase, z-score: -1.43; call: inactive
PTPN11P4 (PTPN11 pseudogene 4) #1 | total luciferase, z-score: -0.0896; call: inactive
PTPN11P4 (PTPN11 pseudogene 4) #2 | total luciferase, z-score: -0.87; call: inactive
PTPN11P4 (PTPN11 pseudogene 4) #3 | total luciferase, z-score: -0.0379; call: inactive
CNGB1 (cyclic nucleotide gated channel subunit beta 1) #1 | total luciferase, z-score: -0.015; call: inactive
CNGB1 (cyclic nucleotide gated channel subunit beta 1) #2 | total luciferase, z-score: -1.03; call: inactive
CNGB1 (cyclic nucleotide gated channel subunit beta 1) #3 | total luciferase, z-score: 0.365; call: inactive

2 entries from above, reformatted.
ZNF233 (zinc finger protein 233) #3
- total luciferase, z-score: 1.41
- call: inactive

DUSP12 (dual specificity phosphatase 12) #1
- total luciferase, z-score: 0.27
- call: inactive

Continued.
CELA3A (chymotrypsin like elastase 3A) #1 | total luciferase, z-score: 2.11; call: inactive
CELA3A (chymotrypsin like elastase 3A) #2 | total luciferase, z-score: -0.307; call: inactive
CELA3A (chymotrypsin like elastase 3A) #3 | total luciferase, z-score: 0.406; call: inactive
ARL14EP (ARF like GTPase 14 effector protein) #1 | total luciferase, z-score: -0.401; call: inactive
ARL14EP (ARF like GTPase 14 effector protein) #2 | total luciferase, z-score: -0.566; call: inactive
ARL14EP (ARF like GTPase 14 effector protein) #3 | total luciferase, z-score: 0.275; call: inactive
JPH2 (junctophilin 2) #1 | total luciferase, z-score: 0.726; call: inactive
JPH2 (junctophilin 2) #2 | total luciferase, z-score: 0.492; call: inactive
JPH2 (junctophilin 2) #3 | total luciferase, z-score: -0.254; call: inactive
TTC8 (tetratricopeptide repeat domain 8) #1 | total luciferase, z-score: 0.157; call: inactive
TTC8 (tetratricopeptide repeat domain 8) #2 | total luciferase, z-score: 1.51; call: inactive
TTC8 (tetratricopeptide repeat domain 8) #3 | total luciferase, z-score: -0.136; call: inactive
MAK (male germ cell associated kinase) #1 | total luciferase, z-score: 0.168; call: inactive
MAK (male germ cell associated kinase) #2 | total luciferase, z-score: 0.417; call: inactive
MAK (male germ cell associated kinase) #3 | total luciferase, z-score: -0.703; call: inactive
EFNA5 (ephrin A5) #1 | total luciferase, z-score: 3.36; call: active
EFNA5 (ephrin A5) #2 | total luciferase, z-score: -1.39; call: inactive
EFNA5 (ephrin A5) #3 | total luciferase, z-score: -1.89; call: inactive
